Measurements reported in PubChem BioAssay AID602196 (INSERM, 2012)
Test: 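Modifiers of cisplatin sensitivity in A549 cells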. System: human A549 lung cancer cells. Reagent: siRNA pair against human genes. Timing: 48 h transfection before cisplatin; time from cisplatin to read-out not stated. Treatment: cisplatin at a dose killing half of control-siRNA cells; exact dose and duration not given. Detection: 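Shift in cisplatin death relative to control siRNA, from -50 (all cells die) to +50 (no cells die); siRNAs harmful on their own scored 0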. Direction: two-siRNA summed score (-2 to +2): higher = both siRNAs protect from cisplatin killing; -2 means both sensitise; mean protection from cisplatin (shift in death) and protection from cisplatin (shift in death), siRNA C and protection from cisplatin (shift in death), siRNA D: higher = protection from cisplatin killing. Active means: 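Each siRNA scores 0 if harmful alone by LDH or WST-1, otherwise +1 if it reduces and -1 if it increases cisplatin killing; a gene is active when both siRNAs agree (sum +2 or -2)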. Meaning of the calls: active = both siRNAs shift cisplatin killing the same way; inactive = no consistent shift, or siRNA harmful alone.
This is an unselected part of about 23,000 deposited reagents. Of all reagents, 455 (2%) got an active call. 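Active includes both protection and sensitisation; some change values fall well beyond the stated -50 to +50 range.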 Not given: the amount of reagent.

gene	two-siRNA summed score (-2 to +2)	mean protection from cisplatin (shift in death) (%)	protection from cisplatin (shift in death), siRNA C (%)	protection from cisplatin (shift in death), siRNA D (%)	outcome
LOC388639	-1	0.3	15.1	-14.4	inactive
HEXB	0	14.8	10.8	18.9	inactive
LOC440668	0	10.3	22.1	-1.5	inactive
LOC400614	0	-0.6	-2.2	1	inactive
RHOBTB3	0	11.4	11.3	11.6	inactive
CCDC18	1	7.2	2	12.3	inactive
DYSF	0	1.4	1	1.7	inactive
ACVR1B	1	7.1	16.6	-2.4	inactive
LINC01144	0	-4.3	-10.9	2.3	inactive
ELOVL7	0	-0.2	3.5	-4	inactive
VKORC1L1	0	1.8	-4.4	8	inactive
LOC392582	0	5.9	9.7	2.1	inactive
STK36	0	3.4	8.3	-1.5	inactive
LOC286144	1	17.1	17.4	16.7	inactive
SYT10	1	14	31.4	-3.5	inactive
PATL1	0	0.4	3.9	-3	inactive
KCNC2	0	-4.3	-2.7	-6	inactive
RPL3L	2	26.4	23.1	29.6	active
PIM3	1	10.3	15	5.6	inactive
LOC400721	0	-1.3	6.1	-8.6	inactive
LOC440324	0	8.6	11.3	6	inactive
FOSL2	0	1.2	1.7	0.7	inactive
TMPO	0	4.5	2.7	6.3	inactive
PDE5A	0	3.3	2.5	4.1	inactive
SERINC1	0	-0.5	8.5	-9.6	inactive
NSD1	1	8.4	-10.3	27.1	inactive
TEKT1	0	-0.1	13.6	-13.7	inactive
PFKL	0	-2.2	-5.5	1.2	inactive
LOC286327	-1	-12.7	-18.6	-6.9	inactive
TXNDC11	0	-1.1	-2.2	-0.1	inactive
OSGIN2	1	8.2	5.8	10.5	inactive
SCCPDH	0	-2.1	-4.5	0.3	inactive
TNS3	0	6.7	11	2.4	inactive
ISCA2	0	2.7	3.4	2.1	inactive
MACF1	0	7.9	12.7	3.1	inactive
SNAPC5	2	16.3	14.4	18.1	active
LINC00880	0	4.4	7.5	1.3	inactive
ASPHD1	0	10.3	18.1	2.5	inactive
LOC442545	0	13.4	7.7	19.1	inactive
CFAP36	0	-0.4	-3.7	2.9	inactive
IL2	0	-2.7	-4.7	-0.7	inactive
SP7	0	10.6	-6.2	27.4	inactive
OR3A1	-1	-5.3	10.1	-20.7	inactive
LINC00114	1	10.9	-8.5	30.2	inactive
PURA	0	6.8	7	6.6	inactive
COL5A1	0	-8.5	-3	-13.9	inactive
HBQ1	0	18.5	13.6	23.5	inactive
LOC387693	0	2.9	5.2	0.6	inactive
CENPK	0	4.5	7.6	1.4	inactive
LOC391840	-1	-5.7	8.9	-20.3	inactive
PDCL	0	-6.6	-12.8	-0.3	inactive
OR52N2	0	16.5	20.5	12.5	inactive
LOC440281	1	13.5	14.2	12.8	inactive
WASHC2A	0	22.3	42.2	2.5	inactive
LOC400778	0	-7.3	-19.9	5.3	inactive
CCDC121	0	-6	-9.1	-2.9	inactive
LOC440474	0	10.3	5.3	15.3	inactive

7 successive reagents from above:
gene	two-siRNA summed score (-2 to +2)	mean protection from cisplatin (shift in death) (%)	protection from cisplatin (shift in death), siRNA C (%)	protection from cisplatin (shift in death), siRNA D (%)	outcome
LOC440324	0	8.6	11.3	6	inactive
FOSL2	0	1.2	1.7	0.7	inactive
TMPO	0	4.5	2.7	6.3	inactive
PDE5A	0	3.3	2.5	4.1	inactive
SERINC1	0	-0.5	8.5	-9.6	inactive
NSD1	1	8.4	-10.3	27.1	inactive
TEKT1	0	-0.1	13.6	-13.7	inactive
